{"sequences": {"note": "Amino acid sequences for entries named in this document (tags omitted). Residues count along the entry.", "UniProt P05067, residues 672-713": "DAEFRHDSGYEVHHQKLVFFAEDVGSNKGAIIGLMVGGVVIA", "UniProt Q99KR7, residues 30-206": "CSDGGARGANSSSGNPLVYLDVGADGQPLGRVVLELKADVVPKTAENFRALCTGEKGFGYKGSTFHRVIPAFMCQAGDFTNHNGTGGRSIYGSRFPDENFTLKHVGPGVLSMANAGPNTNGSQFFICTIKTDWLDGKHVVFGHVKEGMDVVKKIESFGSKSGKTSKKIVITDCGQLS"}, "source": "patent US20100291074A1", "about": "“CYCLOPHILIN D-AMYLOID BETA INTERACTION POTENTIATES MITOCHONDRIAL DYSFUNCTION IN A TRANSGENIC MOUSE MODEL OF ALZHEIMER'S DISEASE” (COLUMBIA UNIVERSITY IN THE CITY OF NEW YORK, priority 2007, published 2010)", "biological_target": "Aβ42 (aggregation state not stated at the place of use) (UniProt P05067)", "experiment": "co-immunoprecipitation, isolated nonTg cortical mitochondria treated with Aβ42 (0.8 µM)", "note": "These are yes or no findings as the source states them, for the method shown. In cells and extracts the contact can be indirect. Some entries that bind do so weakly or less than the wild type."}
{"substance": "mouse CypD, endogenous, in brain mitochondria and cultured cortical neurons of nonTg and Tg mAPP mice (from UniProt Q99KR7 30-206) (enzyme)", "values": [{"measurement": "binding", "value": "binds"}]}
